Measurements reported in publication PMC10568461, “A pilot study of cerebral metabolism and serotonin 5-HT2A receptor occupancy in rats treated with the psychedelic tryptamine DMT in conjunction with the MAO inhibitor harmine” (Frontiers in Pharmacology, 2023).

Experiment: Blood glucose during the PET session (experiment 1)
Assay type: in vivo, rat
Details: mean (SD)
[1] = T1, baseline at the time of the first injection (t = 0 min)
[2] = T2, at the time of [18F]FDG injection (t + 25 min)
[3] = T3, before start of PET scan (t + 70 min)

Compound | Plasma glucose concentration [1] | Plasma glucose concentration [2] | Plasma glucose concentration [3]
CN(C)CCc1c[nH]c2ccccc12 [DMT, N,N-dimethyltryptamine] | 6.17 (0.54) mmol/L | 5.87 (0.65) mmol/L | 6.33 (0.6) mmol/L
COc1ccc2c(c1)[nH]c1c(C)nccc12 [harmine] | 6.55 (0.73) mmol/L | 6.97 (0.7) mmol/L | 5.95 (0.91) mmol/L
